The source of these data is US20230416329A1, “A PEPTIDE WITH DISULFIDE BONDS AND INHIBITORY ACTIVITY AGAINST SERINE PROTEASES, DERIVED HYBRID PEPTIDES THEREOF, AND USES THEREOF” (INSTITUTE OF MATERIA MEDICA , CHINESE ACADEMY OF MEDICAL …, priority 2020, published 2023).

Protein sequences, listed by entry. Tags and fused reporters are not part of them. Residues count along the entry.
UniProt Q8NBP7, residues 31-692: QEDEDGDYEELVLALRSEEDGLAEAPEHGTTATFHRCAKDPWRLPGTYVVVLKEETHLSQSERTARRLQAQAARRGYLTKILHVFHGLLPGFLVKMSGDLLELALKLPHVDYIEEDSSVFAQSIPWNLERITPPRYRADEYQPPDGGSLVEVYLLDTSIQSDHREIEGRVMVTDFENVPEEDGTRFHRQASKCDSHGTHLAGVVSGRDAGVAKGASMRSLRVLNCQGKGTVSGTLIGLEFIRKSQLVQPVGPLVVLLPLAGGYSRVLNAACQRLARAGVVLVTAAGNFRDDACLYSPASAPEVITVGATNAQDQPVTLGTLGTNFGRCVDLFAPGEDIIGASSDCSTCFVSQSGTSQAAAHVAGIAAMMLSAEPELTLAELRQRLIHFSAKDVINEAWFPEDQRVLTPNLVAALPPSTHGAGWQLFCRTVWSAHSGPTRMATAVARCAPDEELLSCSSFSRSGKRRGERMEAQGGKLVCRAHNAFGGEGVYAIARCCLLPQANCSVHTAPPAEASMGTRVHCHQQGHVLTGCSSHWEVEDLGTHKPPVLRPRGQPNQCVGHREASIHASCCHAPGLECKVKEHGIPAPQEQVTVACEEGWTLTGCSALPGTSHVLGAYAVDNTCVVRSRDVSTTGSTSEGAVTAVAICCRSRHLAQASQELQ
UniProt P00760, residues 24-246: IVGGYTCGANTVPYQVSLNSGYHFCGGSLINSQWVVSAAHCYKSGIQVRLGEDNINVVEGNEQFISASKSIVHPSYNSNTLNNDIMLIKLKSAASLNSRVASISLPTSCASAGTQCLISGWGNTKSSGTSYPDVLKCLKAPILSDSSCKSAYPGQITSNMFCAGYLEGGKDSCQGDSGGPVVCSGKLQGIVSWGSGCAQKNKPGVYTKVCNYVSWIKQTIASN

These are yes or no findings as the source states them, for the method shown. Some results given as binding are weak or reduced against the parent protein; the word gives no strength.

The target of one experiment is proprotein convertase subtilisin/kexin type 9 (PCSK9) (UniProt Q8NBP7). In words: PCSK9-LDLR in vitro binding assay kit.
Regarding FCTYSIPPQCYGGTVFTSWEEALDWV (Cys-Cys disulfide) [PCSK9_3CH], the binding result was “binds”.

Regarding ICTASIPPICQGTVFTSWEEALDWV (Cys-Cys disulfide) [PCSK9_3EC], the binding result is listed as “binds”. On the same count and under the same terms, the value for TVFTSWEEALDWVGICTASIPPICQ (Cys-Cys disulfide) [PCSK9_2EC] was “binds”. Same read-out and setting: the value for WEEYLDYVGFCTYSIPPQCYGTVFTS (Cys-Cys disulfide) [PCSK9_6CH] was “binds”; that for TVFTSWEEALDWVGFCTYSIPPQCYG (Cys-Cys disulfide) [PCSK9_2CH] was “binds”.

For TVFTSGFCTYSIPPQCYGWEEYLDWV (Cys-Cys disulfide) [PCSK9_9CH], the binding entry is recorded as “binds”.

For the molecule TVFTSGICTASIPPICQWEEYLDWV (Cys-Cys disulfide) [PCSK9_9EC], the binding entry is recorded as “binds”. On the same count and under the same terms, the same measure for WEEALDWVGFCTYSIPPQCYGTVFTS (Cys-Cys disulfide) [PCSK9_5CH]: “binds”; for WEEYLDYVGICTASIPPICQGTVFTS (Cys-Cys disulfide) [PCSK9_6EC]: “binds”. Consider WEEALDWVGICTASIPPICQGTVFTS (Cys-Cys disulfide) [PCSK9_5EC], for which the binding entry is listed as “binds”.

The target of the next experiment is bovine trypsin (bovine) (UniProt P00760). In words: trypsin inhibition, BApNA substrate (IC50).
As for GRCPKILQRCF (Cys-Cys disulfide) [BT43], the binding result is “no binding (tested: 50 µM)”.

A further experiment concerns the target proprotein convertase subtilisin/kexin type 9 (PCSK9) (UniProt Q8NBP7). In words: inhibition experiment of PCSK9-LDLR.
On to FCTYSIPPQCYGGTVFTSWEEALDWV (Cys-Cys disulfide) [PCSK9_3CH], for which the binding result is “binds”. The same measure, in the same setting: the value for WEEALDWVCGRATKSIPPICFGTVFTS (Cys-Cys disulfide) [PCSK9_5] was “binds”; that for TVFTSGCGRATKSIPPICFWEEYLDWV (Cys-Cys disulfide) [PCSK9_7] was “binds”. Still for that read-out and setting: the value for TVFTSGCGRATKSIPPICFSWEEYLDWV (Cys-Cys disulfide) [PCSK9_8] was “binds”. ICTASIPPICQGTVFTSWEEALDWV (Cys-Cys disulfide) [PCSK9_3EC]: the binding result is listed as “binds”.

TVFTSWEEALDWVGICTASIPPICQ (Cys-Cys disulfide) [PCSK9_2EC]: the binding result was “binds”. Still for that read-out and setting: the same measure for WEEYLDYVGFCTYSIPPQCYGTVFTS (Cys-Cys disulfide) [PCSK9_6CH]: “binds”; for TVFTSWEEALDWVGFCTYSIPPQCYG (Cys-Cys disulfide) [PCSK9_2CH]: “binds”; for TVFTSGFCTYSIPPQCYGWEEYLDWV (Cys-Cys disulfide) [PCSK9_9CH]: “binds”. Turning to TVFTSGRCTKSIPPICFWEEYLDWV (Cys-Cys disulfide) [PCSK9_9], the binding entry is “binds”. On the same count and under the same terms, the value for TVFTSWEEALDWVCGRATKSIPPICF (Cys-Cys disulfide) [PCSK9_2] was “binds”; that for TVFTSGICTASIPPICQWEEYLDWV (Cys-Cys disulfide) [PCSK9_9EC] was “binds”; that for WEEALDWVGFCTYSIPPQCYGTVFTS (Cys-Cys disulfide) [PCSK9_5CH] was “binds”. As for WEEYLDYVGICTASIPPICQGTVFTS (Cys-Cys disulfide) [PCSK9_6EC], the binding result is “binds”. Still for that read-out and setting: the same measure for WEEYLDYVCGRATKSIPPICFGTVFTS (Cys-Cys disulfide) [PCSK9_6]: “binds”.

Take CGRATKSIPPICFGTVFTSWEEALDWV (Cys-Cys disulfide) [PCSK9_3]: the binding result is recorded as “binds”. On the same count and under the same terms, the same measure for WEEALDWVGICTASIPPICQGTVFTS (Cys-Cys disulfide) [PCSK9_5EC]: “binds”.

A further experiment has the same target. In words: PCSK9-LDLR in vitro binding assay kit, 50 µM peptide.
Turning to WEEALDWVCGRATKSIPPICFGTVFTS (Cys-Cys disulfide) [PCSK9_5], the binding result is recorded as “binds”. TVFTSGCGRATKSIPPICFWEEYLDWV (Cys-Cys disulfide) [PCSK9_7]: the binding result is reported as “binds”. Still for that read-out and setting: the value for TVFTSGCGRATKSIPPICFSWEEYLDWV (Cys-Cys disulfide) [PCSK9_8] was “binds”.

Consider TVFTSGRCTKSIPPICFWEEYLDWV (Cys-Cys disulfide) [PCSK9_9], for which the binding entry is listed as “binds”. As to TVFTSWEEALDWVCGRATKSIPPICF (Cys-Cys disulfide) [PCSK9_2], the binding result is “binds”.

For the molecule WEEYLDYVCGRATKSIPPICFGTVFTS (Cys-Cys disulfide) [PCSK9_6], the binding result is listed as “binds”. For CGRATKSIPPICFGTVFTSWEEALDWV (Cys-Cys disulfide) [PCSK9_3], the binding entry was “binds”.
